Reference: patent EP0343268A1, “Pharmaceutical composition and process for preparing the same” (BIOGAL GYOGYSZERGYAR, priority 1988, dated 1989)
At least one compound was matched to its structure with a doubt left.

Test: In vitro mucolytic effect on ear discharges

CCN(CC)C(=S)SSC(=S)N(CC)CC [disulfiram]
mucolytic effect: a mucolytic effect can also be shown
